PubChem BioAssay AID1259308 | NCATS, 2017
This is an unselected part of about 59,000 reagents tested. About 1,510 of all reagents (2.6%) were called active. 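Calls use total luciferase alone and ignore viability, so some active siRNAs may act by altering cell number.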 Further read-outs or replicates are left out here.

Assay: 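Knock-downs that increase output of a recombinant reporter protein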 (primary screen)
Cell system: human HEK293 embryonic kidney cells stably expressing firefly luciferase (HEK-CMV-Luc2-Hygro)
Reagent: single siRNA against human genes, 0.8 pmol siRNA per well
Timing: 72 h
Detection: 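Luciferase light (ONE-Glo) measured on one replicate plate set and viability (CellTiter-Glo) on the other, scaled to a negative control siRNA, with robust z-scores and luciferase per cell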
Direction: total luciferase, z-score: higher = more reporter protein produced
Call rule: 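Active when the median/MAD z-score for overall luciferase is greater than 3; a gene was taken forward for validation with new siRNAs if at least two of its three siRNAs passed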
Meaning of the calls: active = raised luciferase; inactive = no rise

total luciferase, z-score, by target and reagent
ACTL6B (actin like 6B): SID160740775 0.933 inactive; SID160740776 -1.24 inactive; SID160740777 3.05 active
DENND2D (DENN domain containing 2D): SID160749860 2.95 inactive; SID160749861 -1.53 inactive; SID160749862 0.186 inactive
FTSJ3 (FtsJ RNA 2'-O-methyltransferase 3): SID160755562 -1.85 inactive; SID160755563 -0.21 inactive; SID160755564 -0.952 inactive
SPON1 (spondin 1): SID160728371 0.903 inactive; SID160728372 1.92 inactive; SID160728373 1.02 inactive
EPHA7 (EPH receptor A7): SID160760929 -1.08 inactive; SID160760938 0.693 inactive; SID160760947 3.2 active
LINC02910 (long intergenic non-protein coding RNA 2910): SID160763429 -0.962 inactive; SID160763431 -0.203 inactive; SID160763432 1.04 inactive
TRANK1 (tetratricopeptide repeat and ankyrin repeat containing 1): SID160723333 0.324 inactive; SID160723334 -1.04 inactive; SID160723335 1.11 inactive
MAP2K7 (mitogen-activated protein kinase kinase 7): SID160715025 0.389 inactive; SID160715026 -0.316 inactive; SID160715027 -1.78 inactive
ZNF143 (zinc finger protein 143): SID160719180 -0.964 inactive; SID160719181 0.227 inactive; SID160719182 -0.539 inactive
TMEM176B (transmembrane protein 176B): SID160733017 -0.176 inactive; SID160738871 1.33 inactive; SID160738872 -2.56 inactive
RAB26 (RAB26, member RAS oncogene family): SID160730905 0.287 inactive; SID160737088 -0.694 inactive; SID160737089 -0.342 inactive
WFDC13 (WAP four-disulfide core domain 13): SID160760106 0.3 inactive; SID160760107 -0.591 inactive; SID160760108 0.531 inactive
MRPL49 (mitochondrial ribosomal protein L49): SID160730158 -0.802 inactive; SID160730168 2.22 inactive; SID160730179 1.45 inactive
ART3 (ADP-ribosyltransferase 3 (inactive)): SID160720517 -0.561 inactive; SID160720528 2.6 inactive; SID160720539 -0.366 inactive
WDR7 (WD repeat domain 7): SID160736042 -0.0552 inactive; SID160736043 -2.18 inactive; SID160736044 -0.214 inactive
SEPTIN4 (septin 4): SID160714581 3.72 active; SID160714582 0.0722 inactive; SID160714583 3.55 active; SID160763150 -1.13 inactive; SID160763152 -1.1 inactive; SID160763153 -0.185 inactive
ZDHHC14 (zDHHC palmitoyltransferase 14): SID160749185 -1.64 inactive; SID160749186 0.33 inactive; SID160749187 -0.579 inactive
HNRNPCL1 (heterogeneous nuclear ribonucleoprotein C like 1): SID160764682 2.51 inactive; SID160764683 0.469 inactive; SID160764684 2.09 inactive

Reagents above with an active call, once more:
total luciferase, z-score, by target and reagent
ACTL6B (actin like 6B): SID160740777 3.05 active
EPHA7 (EPH receptor A7): SID160760947 3.2 active
SEPTIN4 (septin 4): SID160714581 3.72 active; SID160714583 3.55 active
